From article PMC10163288
The other results are listed elsewhere or left out.

B1: il2ra_site1_2b5i_sap_7_mot_HHH_b2_07267_000000116_0001_43_56_H_._HHH_b1_01886_0001_0000300022_0000001_0_0001_af2pred_0001_af2pred (protein)
chain: SSSSSWEELLELYREASKLLRNGNPEEAERVLEEALKIAKELGDEKIERQLEHLLELIRGSSSSS
B2: il2ra_site2_3nfp_sap_12_mot_HHH_b2_07840_000000026_0001_18_34_H_._HHH_b1_07725_af2_0001_0000300017_0000001_0_0001 (protein)
chain: DLELAQLVMEARKYADQEVIALLYIILKLARELNDPRLKELLREAAELVEEGNPEEAKEVLEEAK
B3: il2ra_site2_2erj_sap_25_mot_HHH_b2_05486_000000159_0001_39_55_H_._HHH_b1_00992_0001_0000100004_0000001_0_0001 (protein)
chain: SSSSSEELHRLYELANELLHLWAENDEEEAREVAEELLELAEKAQSRTAREVARRILEELSSSSS
B4: il2ra_site2_2erj_sap_23_mot_ca9fcc9ace360711d783d1260e4fbff1_0001_1_af2_000000007_0001_15_32_H_._HHH_b2_04203_af2_0001_0000300022_0000001_0_0001 (protein)
chain: SSSDREEARVHFLAFRAMRLNNNGNPEEAQKVLEEAKEIAEENNNEELREWLEAMERTIKHSSSS
B5: il2ra_site2_3nfp_normal_mot_HHH_b1_05918_af2_000000127_0001_23_40_H_._HHH_b2_06926_0001_0000300016_0000001_0 (protein)
chain: SSSSDEREEYLRAALLLLELAVELGDREAARSLTETAREAAEALNDEEILEALERLIEELESSSS
B6: il2ra_site2_2erj_normal_mot_HHH_b1_08042_000000168_0001_1_18_H_._HHH_b2_03570_0001_0000100007_0000001_0 (protein)
chain: SSSSSEEAERTAKVLEEVMRLFQEGDPEQARELLEELARELEELNDEELLEAVERWLRYLSSSSS
B7: il2ra_site1_3nfp_sap_18_mot_HHH_b2_00809_af2_000000121_0001_23_40_H_._HHH_b2_07147_0001_0000400019_0000001_0_0001_af2pred_0001_af2pred_1 (protein)
chain: SERAEEKLVRFAAERNNPRLLRHLLEVLEKFLGDPEEATEALVKAIAEVLNIPPEEAREIVEEVK
B8: il2ra_site1_3nfp_sap_16_mot_06fb79ff5b0635ea054e4773f75fe636_0001_af2_000000209_0001_53_63_H_._HEEHE_0001_0001_0000200015_0000001_0_0001_af2pred_0001_af2pred_1 (protein)
chain: TAEELVAEAIHHAVKRNSPFLLRRVLEDFERFAGDPEEAKRLFEEFLEEAGLSPEEIERAKELVE
B9: il2ra_site1_1z92_normal_mot_HHH_b2_05373_af2_000000032_0001_24_40_H_._66959ead3e6c57cb3ef8243f3eb758e0_0001_1_af2_0001_0000100003_0000001_0_af2pred_0001_af2pred … (protein)
chain: SLIEEDLREAVEKNDEELLKEFIELLLKDTGDPKLVEALLRVLVRRLGLPPEVLEELRRLLEELT
B10: il2ra_site1_1z92_sap_15_mot_HHH_b1_00368_000000203_0001_23_39_H_._HHH_b2_07985_0001_0000100002_0000001_0_0001 (protein)
chain: SSSTREMLKRLSRIISKLIHKYGLSDEQALELLKLADELALRGVSEEEIEQLLEELAKELKSSSS
B11: il2ra_site1_2b5i_normal_mot_HHH_b2_04910_000000118_0001_1_19_H_._HHH_b1_02607_0001_0000300018_0000001_0_af2pred_0001_af2pred_1 (protein)
chain: SSSSDFRELRELLREANELFKNGDPEEARRVLEEAIELAREAGNRSMLRFLETALRLIEASSSSS
B12: il2ra_site2_3nfp_sap_15_mot_HHH_b2_00102_000000046_0001_18_35_H_._HHH_b1_04540_af2_0001_0000400024_0000001_0_0001_af2pred_0001_af2pred (protein)
chain: SSSSSEEEEEVEKLLKEAEELLKRGDPEEAEEVVHRALLIARELNNEELLELIKELFEKILSSSS
B13: il2ra_site1_1z92_sap_21_mot_HHH_b1_04602_000000153_0001_1_19_H_._6bb093d23f5042b6c551c363657da53b_0001_1_0001_0000300026_0000001_0_0001 (protein)
chain: NRRELQHMIEELREEGVPPEEIVKILLELVERDAGDPRLALQFLKRLLRKLGDPELLKVLEELIK
B14: il2ra_site2_3nfp_sap_20_mot_HHH_b1_01243_000000091_0001_42_57_H_._HHH_b2_00198_af2_0001_0000400017_0000001_0_0001 (protein)
chain: SSSSSEHEEYLRAALALLEWALEEGDEELFRKLARLIEMAAEDAKDEEVLEEVRRLLEEFDSSSS
B15: il2ra_site2_2erj_normal_mot_HHH_b1_08702_000000201_0001_39_56_H_._HHH_b2_04470_0001_0000400002_0000001_0 (protein)
chain: SSSSSEEEEVEELFKKAKELLENGNPEEASAVLARAAFIAIENNNDELLRELWELAREIFSSSSS
B16: il2ra_site2_2erj_normal_mot_HHH_b1_03833_000000078_0001_1_20_H_._HHH_b2_00047_0001_0000100001_0000001_0 (protein)
chain: SSSSDEIEELLRELREAFEKNDPRFHKLAWELLRLASELGSDEAAEIAQEAFRLFEELLKGSSSS
B17: il2ra_site2_2erj_normal_mot_HHH_b1_07806_000000211_0001_42_56_H_._HHH_b2_03376_0001_0000100006_0000001_0 (protein)
chain: SSSSSDELERLYELLEEVDELLQKGNEEEAEEVAEELEKLARELQSPNVEELLKLSLELNSSSSS
B18: il2ra_site2_2erj_normal_mot_HHH_b2_05773_000000169_0001_20_36_H_._HHH_b1_04433_af2_0001_0000200004_0000001_0 (protein)
chain: SSSSDEEAEKLREEAREAAEEGDPEEAFRLLSRAFEIAYELNDHRLAAEIIELAARIAKLESSSS

These binders were tested against il2ra, P01589 (assay: yeast display titration).

Apparent Kd, inactive:
B1 no binding seen
B2 no binding seen
B3 no binding seen
B4 no binding seen
B5 no binding seen
B6 no binding seen
B7 no binding seen
B8 no binding seen
B9 no binding seen
B10 no binding seen
B11 no binding seen
B12 no binding seen
B13 no binding seen
B14 no binding seen
B15 no binding seen
B16 no binding seen
B17 no binding seen
B18 no binding seen

A section taken from the entries so far:
Apparent Kd, inactive:
B6 no binding seen
B7 no binding seen
B8 no binding seen
B9 no binding seen
